Drawing on publication PMC12208539, this text covers binding for 2 molecules.

No constants are given. Whether binding was seen depends on the method and setting. In cells and extracts the contact can be indirect. Some entries that bind do so weakly or less than the wild type. For some assays here: Sequences can lack the tags named with a protein.

Assay [1] has as its target T1, Ppil2, endogenous in mouse erythroid cells (mouse (endogenous in bone marrow Ter119+ cells)) (UniProt Q9D787).
T1 sequence: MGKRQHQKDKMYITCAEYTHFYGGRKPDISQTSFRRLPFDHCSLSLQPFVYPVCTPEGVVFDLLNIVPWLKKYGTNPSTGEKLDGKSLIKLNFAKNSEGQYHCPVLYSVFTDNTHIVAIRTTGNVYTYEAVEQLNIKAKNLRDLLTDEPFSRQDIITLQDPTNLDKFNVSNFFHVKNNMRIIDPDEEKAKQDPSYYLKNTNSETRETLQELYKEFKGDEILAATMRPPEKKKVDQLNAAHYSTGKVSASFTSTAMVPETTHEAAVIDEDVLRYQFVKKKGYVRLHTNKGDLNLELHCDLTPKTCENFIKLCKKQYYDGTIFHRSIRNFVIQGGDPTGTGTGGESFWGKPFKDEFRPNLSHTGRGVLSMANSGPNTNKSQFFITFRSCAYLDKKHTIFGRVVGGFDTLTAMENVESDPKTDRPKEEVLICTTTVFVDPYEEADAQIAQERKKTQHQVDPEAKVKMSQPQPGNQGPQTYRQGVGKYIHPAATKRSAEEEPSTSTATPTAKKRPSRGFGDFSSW
As to the kind of experiment: co-IP; endogenous IP: PPIL2 antibody or IgG with 1 mg lysate of mouse bone marrow Ter119+ cells, 4°C overnight, protein A/G beads; Western blotting. On the technique in general: A western blot detects proteins with antibodies after separation by electrophoresis.

A further assay has as its target T2, Flag-PLEK2 (UniProt Q9NYT0).
T2 sequence: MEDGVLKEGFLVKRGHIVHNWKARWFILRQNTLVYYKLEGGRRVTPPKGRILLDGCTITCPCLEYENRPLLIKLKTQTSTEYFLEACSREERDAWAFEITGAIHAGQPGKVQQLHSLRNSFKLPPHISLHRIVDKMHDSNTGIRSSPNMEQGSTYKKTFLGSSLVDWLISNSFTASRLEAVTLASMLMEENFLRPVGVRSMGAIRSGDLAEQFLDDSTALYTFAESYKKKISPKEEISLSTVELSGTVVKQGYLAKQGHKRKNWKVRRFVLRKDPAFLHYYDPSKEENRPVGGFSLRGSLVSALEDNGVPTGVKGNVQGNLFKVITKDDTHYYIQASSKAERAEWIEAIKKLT
As to the kind of experiment: co-IP; anti-Flag magnet beads with 1 mg lysate of transfected HEK293T cells, 4°C overnight; IP buffer 50 mM Tris-HCl pH 8.0, 150 mM NaCl, 1% Triton X-100; Western blotting.

B1: Plek2, endogenous in mouse erythroid cells (protein, UniProt Q9WV52 1-353)
chain: MEDGVLKEGFLVKRGHIVHNWKARWFILRQNTLLYYKLEGGRRVTPPKGRIVLDGCTITCPCLEYENRPLLIKLKTRTSTEYFLEACSREERDSWAFEITGAIHAGQPGKIQQLHILKNSFKLPPHISLHRIVDKMHDTSTGIRPSPNMEQGSTYKKTFLGSSLVDWLISSNFAASRLEAVTLASMLMEENFLRPVGVRSMGAIRSGDLAEQFLDDSTALYTFAESYKKKVSSKEEISLSTMELSGTVVKQGYLSKQGHKRKNWKVRRFVLRKDPAFLHYYDPSKEENRPVGGFSLRGSLVSALEDNGVPTGVKGNVQGNLFKVITKDDTHYYIQASSKAERAEWIEAIKKLT
With B1, in assay [1], the binding result is on record as “binds”.

B2: PPIL2 (peptidylprolyl isomerase-like 2) in HEK293T lysate (protein, UniProt Q13356 1-520)
chain: MGKRQHQKDKMYITCAEYTHFYGGKKPDLPQTNFRRLPFDHCSLSLQPFVYPVCTPDGIVFDLLNIVPWLKKYGTNPSNGEKLDGRSLIKLNFSKNSEGKYHCPVLFTVFTNNTHIVAVRTTGNVYAYEAVEQLNIKAKNFRDLLTDEPFSRQDIITLQDPTNLDKFNVSNFYHVKNNMKIIDPDEEKAKQDPSYYLKNTNAETRETLQELYKEFKGDEILAATMKAPEKKKVDKLNAAHYSTGKVSASFTSTAMVPETTHEAAAIDEDVLRYQFVKKKGYVRLHTNKGDLNLELHCDLTPKTCENFIRLCKKHYYDGTIFHRSIRNFVIQGGDPTGTGTGGESYWGKPFKDEFRPNLSHTGRGILSMANSGPNSNRSQFFITFRSCAYLDKKHTIFGRVVGGFDVLTAMENVESDPKTDRPKEEIRIDATTVFVDPYEEADAQIAQERKTQLKVAPETKVKSSQPQAGSQGPQTFRQGVGKYINPAATKRAAEEEPSTSATVPMSKKKPSRGFGDFSSW
For B2, in the assay with Flag-PLEK2, the binding entry is on record as “binds”.
